In PubChem BioAssay AID504444 (National Center for Advancing Translational Sciences (NCATS), 2011):
Hit rate of the full screen: of about 360,000 compounds, about 7,500 (2.1%) were called active. The shares of active, inactive and inconclusive entries below differ from those in the screen. The call rests on the fitted dose curve; in most records, active means well fitted inhibition curve with a large enough effect; inconclusive means small, poorly fitted or top-dose-only effect, or effect the other way; inactive means flat fitted curve, though single readings scatter. A potency beside an inconclusive call is a rough fit, not a confirmed value.

experiment: Nrf2 qHTS screen for inhibitors; conditions: A549 ARE-Fluc reporter, luciferase luminescence, 18-24 h; activity change, negative = inhibition: at 46 µM (top of the series); further: nearly all actives have a fitted effect of over 60% in size
Method in brief: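 In this cell-based qHTS, ARE-driven firefly luciferase in A549 cells reports Nrf2 activity; the luminescent signal after BugLite lysis is the measured value, with a prior CellTiter-Fluor read for cell health.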
On the % scale 0 is the no-effect control and ±100 the full control effect; potency means the concentration at half of the fitted maximal effect.

Row | Structure (SMILES) | Potency | activity change, negative = inhibition
1 | O=C1CCCC2=C1C1(CCCCC1)N=C(Nc1nc3ccccc3o1)N2 | inconclusive: 8.2 µM [falling, partial curve] | 
2 | CCc1cc[n+](C2=C([O-])c3ccccc3C(=O)/C2=N\S(=O)(=O)c2cccs2)cc1 | active: 18.4 µM | 
3 | Cc1cc(-c2nnc(SCc3ccccn3)o2)no1 | inconclusive: 9.2 µM [activator, partial curve, poor fit] | 
4 | CCc1ccc(S(=O)(=O)Nc2cccc(-c3ccc4nncn4n3)c2)s1 | inconclusive: 29.1 µM [activator, single point] | 
5 | CCn1nc(C(C)C)cc1C(=O)N1CCCC(CO)(Cc2ccc(F)cc2F)C1 (configuration not stated) | inconclusive: 29.1 µM [falling, single point] | 
6 | CCOc1cccc(=O)c2c(C)n(CC(=O)c3ccccc3)c(C)c12 | inconclusive: 11.6 µM [falling, partial curve] | 
7 | Cc1cc(C)n(Cc2ccc(C(=O)N/N=C/c3ccc(-c4ccc([N+](=O)[O-])cc4)o3)o2)n1 | inconclusive: 32.6 µM [falling, partial curve, poor fit] | 
8 | CCOc1ccc(S(=O)(=O)Nc2cc(Cl)ccc2OC)c2cccnc12 | inconclusive: 25.9 µM [falling, partial curve, poor fit] | 
9 | COc1ccc(-c2cn[nH]c2-c2ccc(OC)cc2O)cc1 |  | inactive: -3.41%
10 | O=c1c(-c2ccco2)[n+]([O-])c2ccccc2n1OCc1ccccc1[N+](=O)[O-] | inconclusive: 1.46 µM [activator, partial curve, poor fit] | 
11 | COc1ccc(Nc2oc(/C=C/c3ccc(OC)c(OC)c3)nc2C#N)cc1 |  | inactive: 11.3%
12 | N#Cc1ccc(OCC(O)CN2CCN(c3ncc(C(F)(F)F)cc3Cl)CC2)cc1 (configuration not stated) | active: 18.4 µM | 
13 | COc1ccc(C(=O)NCCc2c[nH]c3ccccc23)cc1OC | inconclusive: 7.31 µM [activator, partial curve, poor fit] | 
14 | CCC1CN(C(=O)N2CCC(C(=O)NCCc3ccccc3)CC2)c2ccccc2O1 (configuration not stated) | inconclusive: 36.6 µM [falling, single point] | 
15 | O=C(Nc1nc2ccccc2s1)c1ccc([N+](=O)[O-])o1 | inconclusive: 32.6 µM [activator, partial curve, poor fit] | 
16 | CC(C(=O)O/N=C(\N)c1ccccn1)c1ccc([N+](=O)[O-])cc1 (configuration not stated) | inconclusive: 20.6 µM [activator, partial curve] | 
17 | COc1ccccc1-c1cc(C(=O)NC(C)c2ccccc2)no1 (configuration not stated) | inconclusive: 0.366 µM [falling, full curve, poor fit] | 
18 | CCn1c(CNC(=O)Cc2ccc(OC)cc2)nnc1SCCOc1ccccc1 | inconclusive: 25.9 µM [falling, single point] | 
19 | CCOC(=O)c1cc(C(=O)Nc2cccc(C)c2)nn1C | inconclusive: 8.2 µM [activator, partial curve] | 
20 | Cc1nnc2c3ccccc3nc(Nc3cccc(O)c3)n12 | inconclusive: 16.4 µM [activator, single point] | 
21 | COc1cccc(NC(=S)NN=C2CCCCCC2)c1 | inconclusive: 7.31 µM [activator, partial curve] | 
22 | O=C(NCCc1ccc(Cl)cc1)c1ccc2c(c1)OCCO2 | inconclusive: 1.03 µM [activator, full curve, poor fit] | 
23 | COCCOc1ccc(C(F)(F)F)cc1NC(=O)COC(=O)c1cc([N+](=O)[O-])ccc1N1CCOCC1 | inconclusive: 3.26 µM [falling, partial curve] | 

Gathered by group, the entries above containing a CF3 group
Row | Structure (SMILES) | Potency | activity change, negative = inhibition
12 | N#Cc1ccc(OCC(O)CN2CCN(c3ncc(C(F)(F)F)cc3Cl)CC2)cc1 (configuration not stated) | active: 18.4 µM | 
23 | COCCOc1ccc(C(F)(F)F)cc1NC(=O)COC(=O)c1cc([N+](=O)[O-])ccc1N1CCOCC1 | inconclusive: 3.26 µM [falling, partial curve] | 

Later entries.

Row | Structure (SMILES) | Potency | activity change, negative = inhibition
24 | NC(=S)N=Nc1ccc(NN=C(N)N)cc1 |  | inactive: -17%
25 | CCOc1ccc2nc(N3CCCC(C(=O)NCc4ccccc4OC)C3)sc2c1 (configuration not stated) | inconclusive: 20.6 µM [activator, single point] | 
26 | Cc1ccc(Cl)cc1N1CCN(C(=O)c2ccc(CS(=O)Cc3ccc(Cl)cc3)o2)CC1 (configuration not stated) | inconclusive: 29.1 µM [falling, single point] | 
27 | Cc1ccc(Cl)cc1NC(=O)C1CCN(c2nc3ccccc3n3cccc23)CC1 |  | inactive: 1.47%
28 | CCCn1c2ccccc2c2cnn(CC(=O)NCCc3ccc(C)cc3)c(=O)c21 | inconclusive: 16.4 µM [activator, single point] | 
29 | Cc1ccc(/C=N/NC(=O)NC2CCCCC2)o1 | inconclusive: 20.6 µM [activator, single point] | 
30 | COc1cc(C(=O)N2CCCc3ccccc32)cc(OC)c1OC | inconclusive: 29.1 µM [falling, single point] | 
31 | CCCS(=O)(=O)N1CCN(c2cc3c(cc2[N+](=O)[O-])n(C)c(=O)n3C)CC1 | active: 11.6 µM | 
32 | COc1ccc(NC(=O)CC2C(=O)N(c3cccc(OC)c3)C(=O)N2Cc2ccc3c(c2)OCO3)cc1 (configuration not stated) |  | inactive: -15.1%
33 | Cc1ccc(-c2cn(-c3ccc(Cl)cc3)c(S(=O)(=O)CC(=O)Nc3ccccc3)n2)cc1 | inconclusive: 3.26 µM [activator, single point] | 
34 | CCOC(=O)Cc1csc(NC(=O)COc2ccccc2)n1 | inconclusive: 5.17 µM [falling, full curve, poor fit] | 
35 | COc1ccc(-n2c3c(cc(C(=O)NCc4ccco4)c2=O)C(=O)CC(C)(C)C3)cc1 |  | inactive: 4.56%
36 | COc1ccc(CNc2nc(N)nc3nc[nH]c23)cc1 | inactive | 
37 | Cc1cc(C)cc(-n2ccn(Cc3ccc(F)cc3)c(=O)c2=O)c1 | active: 23.1 µM | 
38 | CC1CCN(CCCNC(=O)CCc2nnc3n(CCc4ccccc4)c(=O)c4ccccc4n23)CC1 | inconclusive: 29.1 µM [activator, partial curve, poor fit] | 
39 | COc1cccc(-c2ccc(SCC(=O)c3ccccc3)nn2)c1 | inconclusive: 10.3 µM [activator, partial curve] | 
40 | COc1ccc2oc(-c3cccc(NC(=O)c4sc5c([N+](=O)[O-])cccc5c4Cl)c3)nc2c1 |  | inactive: 23.1%
41 | Cc1ccc(NC(=O)COC(=O)CN2CSCC2=O)cc1C |  | inactive: -2.23%
42 | CCC1(c2ccccc2)NC(=O)N(CC(=O)N2CCN(S(=O)(=O)c3ccccc3)CC2)C1=O (configuration not stated) | inconclusive: 0.651 µM [activator, full curve, poor fit] | 
43 | Cc1ccc(-c2noc(CSc3nnc(-c4cccs4)n3C)n2)cc1 | inconclusive: 23.1 µM [falling, partial curve] | 
44 | CCn1c(SCC(=O)Nc2cccc(OC)c2)nnc1-c1ccc(Cl)cc1 | active: 25.9 µM | 
45 | CN1c2ccccc2C(C)(C)C12CC(c1cccc(S(=O)(=O)N3CCCC3)c1)=NO2 (configuration not stated) | inconclusive: 23.1 µM [activator, single point] | 
46 | CCc1ccc(NC(=O)CCCn2nc(CC)n3c(cc4occc43)c2=O)cc1 | inconclusive: 18.4 µM [falling, single point] | 

Row | Structure (SMILES) | Potency | activity change, negative = inhibition
47 | COc1ccc(S(=O)(=O)NNC(=O)Nc2ccccc2OC)c(OC)c1 |  | inactive: -1.05%
48 | CCOC(=O)C1=C(C)NC(=S)N(C(C)=O)C1c1ccc(OC)c(OC)c1 (configuration not stated) | inconclusive: 20.6 µM [falling, single point] | 
49 | COc1ccc(NC(=O)c2ccc(NC(=O)c3ccco3)cc2)c(OC)c1 | inconclusive: 23.1 µM [falling, partial curve] | 
50 | Cc1ccc(S(=O)(=O)NC2CCCCCCC2)cc1 |  | inactive: -14.1%
51 | COc1ccccc1CCC(=O)Nc1ccc(C)cc1Cl | inconclusive: 7.31 µM [activator, partial curve] | 
52 | COc1cccc(-c2ccc3ncnc(NCc4cccc(C)c4)c3c2)c1 | inconclusive: 10.3 µM [falling, partial curve] | 
53 | Cc1cc([N+](=O)[O-])nn1CCCC(=O)Nc1cc(Oc2ccccc2)cc([N+](=O)[O-])c1 | inconclusive: 20.6 µM [falling, single point] | 
54 | COc1ccc(NC(=O)/C(C#N)=C/c2ncc([N+](=O)[O-])n2C)c(OC)c1 | inconclusive: 6.51 µM [activator, single point] | 
55 | O=C(Nc1cccc(S(=O)(=O)N2CCCCC2)c1)c1cc([N+](=O)[O-])ccc1N1CCOCC1 | inconclusive: 0.231 µM [falling, full curve, poor fit] | 
56 | CCOC(=O)c1cc(-c2ccc(OC(F)F)cc2)nc2c1c(=O)[nH]c(=O)n2C |  | inactive: -26.9%
57 | CCn1c(CNc2nc3ccccc3n2C(C)C)nc2ccccc21 |  | inactive: -21.2%
58 | COc1ccc(N2CCN(Cc3nc4c(c(=O)n(C)c(=O)n4C)n3C(C)C(C)=O)CC2)cc1 (configuration not stated) | inconclusive: 29.1 µM [falling, single point] | 
59 | O=C(COc1ccc(Cl)cc1)N/N=C/c1cccc2cccnc12 | inconclusive: 10.3 µM [falling, partial curve, poor fit] | 
60 | COc1ccc(S(=O)(=O)NNC(=O)Nc2ccc(F)cc2F)c(OC)c1 |  | inactive: -0.68%
61 | COc1ccc(S(=O)(=O)c2nnn(-c3ccc(C)c(Cl)c3)c2C)cc1 | inconclusive: 16.4 µM [falling, single point] | 
62 | CC1(C)CC(=O)C(C(N)=NC(=O)c2ccccc2)=C(O)C1 | inconclusive: 13 µM [activator, partial curve] | 
63 | O=C(c1ncc[nH]1)c1cccs1 | inconclusive: 29.1 µM [activator, single point] | 
64 | C#CCOc1nc(Nc2cccc([N+](=O)[O-])c2)nc(OCC#C)n1 | inconclusive: 29.1 µM [falling, single point] | 
65 | O=S(=O)(NCCc1cn(S(=O)(=O)c2ccccc2)c2ccccc12)c1ccccc1 |  | inactive: 10.7%
66 | CCCCOc1ccc(Cl)cc1CSc1n[nH]c(C)n1 | inconclusive: 16.4 µM [falling, single point] | 
67 | Cc1cc(NC(=O)CSc2ccccc2)no1 | inconclusive: 29.1 µM [activator, single point] | 
